Data published in PMC11898282.
These are yes or no findings as the source states them, for the method shown. In cells and extracts the contact can be indirect. Some entries that bind do so weakly or less than the wild type. For some assays here: Where a sequence is shown, tags or fusion partners need not be part of it.

By UniProt entry, the sequences of proteins in these tests, tags left out.
UniProt P67809: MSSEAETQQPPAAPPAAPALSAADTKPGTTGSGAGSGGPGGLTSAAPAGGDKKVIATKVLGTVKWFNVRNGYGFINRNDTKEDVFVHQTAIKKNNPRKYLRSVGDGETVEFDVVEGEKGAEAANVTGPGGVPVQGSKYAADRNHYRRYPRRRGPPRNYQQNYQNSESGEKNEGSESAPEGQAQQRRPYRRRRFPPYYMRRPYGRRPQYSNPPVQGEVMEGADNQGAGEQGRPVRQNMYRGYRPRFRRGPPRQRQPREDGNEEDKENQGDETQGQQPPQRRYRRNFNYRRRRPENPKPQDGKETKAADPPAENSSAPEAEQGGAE

Columns and labels:
[1] = target: T1, Flag-tagged TMBIM1 (transmembrane BAX inhibitor motif-containing 1) (human) (UniProt Q969X1); assay: co-IP; CFPAC-1 cells expressing Flag-TMBIM1; extracts incubated overnight at 4 °C with Protein A/G magnetic beads and anti-Flag antibody; three washes with IP buffer; silver staining and immunoblot for YBX1; vector control
T1 sequence: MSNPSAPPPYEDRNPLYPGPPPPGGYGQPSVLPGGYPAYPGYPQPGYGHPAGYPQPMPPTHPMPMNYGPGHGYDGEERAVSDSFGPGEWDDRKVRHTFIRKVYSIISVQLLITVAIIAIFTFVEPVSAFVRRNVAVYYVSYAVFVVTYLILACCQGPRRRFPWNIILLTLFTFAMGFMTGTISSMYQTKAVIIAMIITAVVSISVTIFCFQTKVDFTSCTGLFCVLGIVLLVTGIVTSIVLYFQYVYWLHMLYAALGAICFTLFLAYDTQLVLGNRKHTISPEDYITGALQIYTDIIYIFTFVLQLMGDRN

[2] = target: Y box binding protein 1 (YBX1) (human (endogenous in CFPAC-1, Capan-1 and PANC-1)) (UniProt P67809); assay: co-IP; endogenous proteins in Capan-1 and PANC-1 extracts; Protein A/G magnetic beads with YBX1 antibody or IgG control; three washes with IP buffer; Western blot

With “Y box binding protein 1 (YBX1) (from UniProt P67809 1-324)” the binding [1] was “binds”.

B1: transmembrane BAX inhibitor motif-containing 1 (TMBIM1), endogenous (protein, UniProt Q969X1 1-311)
chain: T1 sequence
B1 was tested, and the binding [2] was “binds”.
